# The supplement of paper PMC12595434, “Development of retinoid nuclear receptor pathway antagonists through targeting aldehyde dehydrogenase 1A3” (iScience, 2025)
# Amino acid sequences for entries named in this document (tags omitted). A change or cut given only in a name is not applied to a line headed by its entry.
# UniProt P21964: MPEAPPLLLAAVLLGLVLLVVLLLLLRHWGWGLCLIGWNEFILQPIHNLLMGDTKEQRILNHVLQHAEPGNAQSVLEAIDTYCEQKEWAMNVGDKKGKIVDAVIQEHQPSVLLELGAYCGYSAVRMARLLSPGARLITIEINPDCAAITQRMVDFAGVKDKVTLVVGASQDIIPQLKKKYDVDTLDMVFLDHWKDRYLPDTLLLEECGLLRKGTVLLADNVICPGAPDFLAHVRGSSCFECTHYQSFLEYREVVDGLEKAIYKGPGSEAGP
# UniProt P34896: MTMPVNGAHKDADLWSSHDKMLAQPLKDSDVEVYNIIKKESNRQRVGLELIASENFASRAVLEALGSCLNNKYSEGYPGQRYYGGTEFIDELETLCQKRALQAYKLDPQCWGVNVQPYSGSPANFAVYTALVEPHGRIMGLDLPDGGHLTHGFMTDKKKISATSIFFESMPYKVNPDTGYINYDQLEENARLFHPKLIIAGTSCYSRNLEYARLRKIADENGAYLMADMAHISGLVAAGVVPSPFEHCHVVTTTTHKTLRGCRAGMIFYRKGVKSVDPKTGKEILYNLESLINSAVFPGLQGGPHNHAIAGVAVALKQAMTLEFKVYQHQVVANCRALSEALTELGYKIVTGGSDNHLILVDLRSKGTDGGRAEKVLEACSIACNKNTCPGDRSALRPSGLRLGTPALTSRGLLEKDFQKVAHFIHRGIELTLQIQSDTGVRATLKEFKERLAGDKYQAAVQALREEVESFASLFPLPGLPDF
# UniProt P35659: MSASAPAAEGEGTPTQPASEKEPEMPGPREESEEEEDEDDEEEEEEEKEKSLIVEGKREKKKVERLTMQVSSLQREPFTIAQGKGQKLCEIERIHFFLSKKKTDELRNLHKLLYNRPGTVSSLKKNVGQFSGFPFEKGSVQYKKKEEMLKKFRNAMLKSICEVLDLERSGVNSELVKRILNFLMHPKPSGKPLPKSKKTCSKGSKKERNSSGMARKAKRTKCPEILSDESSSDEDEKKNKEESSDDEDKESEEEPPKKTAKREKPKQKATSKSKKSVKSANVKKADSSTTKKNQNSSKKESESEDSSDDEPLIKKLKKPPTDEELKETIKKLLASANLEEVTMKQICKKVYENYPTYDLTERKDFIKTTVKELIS
# UniProt P22087: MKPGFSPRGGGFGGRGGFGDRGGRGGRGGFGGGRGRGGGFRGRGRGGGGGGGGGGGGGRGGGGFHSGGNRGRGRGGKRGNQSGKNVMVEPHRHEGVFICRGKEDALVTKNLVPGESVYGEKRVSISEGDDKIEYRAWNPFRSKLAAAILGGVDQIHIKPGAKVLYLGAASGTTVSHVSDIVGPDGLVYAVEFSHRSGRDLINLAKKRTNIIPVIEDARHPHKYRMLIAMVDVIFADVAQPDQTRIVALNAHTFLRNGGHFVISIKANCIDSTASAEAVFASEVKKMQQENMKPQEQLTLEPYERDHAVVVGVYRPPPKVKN
# UniProt P20674, whole entry: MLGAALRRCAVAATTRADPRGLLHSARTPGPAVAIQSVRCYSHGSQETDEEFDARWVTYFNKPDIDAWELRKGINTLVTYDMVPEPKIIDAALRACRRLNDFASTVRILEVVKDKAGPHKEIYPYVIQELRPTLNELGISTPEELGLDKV
# UniProt P27797, whole entry: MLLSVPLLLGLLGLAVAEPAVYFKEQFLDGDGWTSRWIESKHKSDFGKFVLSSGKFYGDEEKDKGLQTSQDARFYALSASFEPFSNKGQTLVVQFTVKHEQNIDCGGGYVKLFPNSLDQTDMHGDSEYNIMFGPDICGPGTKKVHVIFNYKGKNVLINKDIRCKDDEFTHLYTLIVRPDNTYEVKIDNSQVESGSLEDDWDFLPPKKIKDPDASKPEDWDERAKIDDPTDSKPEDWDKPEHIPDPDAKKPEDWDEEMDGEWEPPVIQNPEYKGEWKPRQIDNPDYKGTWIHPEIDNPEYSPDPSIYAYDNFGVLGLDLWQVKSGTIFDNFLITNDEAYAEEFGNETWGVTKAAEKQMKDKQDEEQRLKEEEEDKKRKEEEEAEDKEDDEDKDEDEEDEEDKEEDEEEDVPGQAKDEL
# UniProt P31321, whole entry: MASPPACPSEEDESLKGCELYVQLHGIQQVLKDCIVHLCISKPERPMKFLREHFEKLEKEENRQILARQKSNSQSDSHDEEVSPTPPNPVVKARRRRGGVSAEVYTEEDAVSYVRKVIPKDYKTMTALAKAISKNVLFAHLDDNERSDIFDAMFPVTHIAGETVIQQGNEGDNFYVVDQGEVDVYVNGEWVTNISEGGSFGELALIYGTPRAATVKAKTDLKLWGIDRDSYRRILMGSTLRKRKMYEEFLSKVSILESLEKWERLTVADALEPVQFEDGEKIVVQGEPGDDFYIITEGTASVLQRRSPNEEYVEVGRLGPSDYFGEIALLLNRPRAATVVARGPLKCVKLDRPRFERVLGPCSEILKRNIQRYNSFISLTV
# UniProt P25098: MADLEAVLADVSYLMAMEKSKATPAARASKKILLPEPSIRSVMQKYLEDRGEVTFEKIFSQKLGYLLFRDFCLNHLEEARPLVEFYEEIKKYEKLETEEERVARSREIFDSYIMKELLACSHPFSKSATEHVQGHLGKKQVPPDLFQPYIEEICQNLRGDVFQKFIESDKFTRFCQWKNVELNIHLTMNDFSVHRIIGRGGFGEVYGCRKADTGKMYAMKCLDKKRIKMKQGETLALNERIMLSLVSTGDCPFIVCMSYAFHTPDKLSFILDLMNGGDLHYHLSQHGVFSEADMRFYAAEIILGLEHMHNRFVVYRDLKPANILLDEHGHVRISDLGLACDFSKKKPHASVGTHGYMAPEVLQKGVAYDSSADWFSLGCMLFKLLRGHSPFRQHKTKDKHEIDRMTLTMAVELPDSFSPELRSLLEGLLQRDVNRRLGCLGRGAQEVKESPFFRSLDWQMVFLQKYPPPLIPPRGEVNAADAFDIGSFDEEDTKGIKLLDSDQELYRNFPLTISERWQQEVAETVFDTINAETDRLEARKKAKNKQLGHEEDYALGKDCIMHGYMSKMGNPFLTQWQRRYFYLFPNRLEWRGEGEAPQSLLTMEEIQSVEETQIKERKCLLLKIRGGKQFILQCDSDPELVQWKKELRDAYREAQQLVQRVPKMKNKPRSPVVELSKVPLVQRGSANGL
# UniProt P25490, whole entry: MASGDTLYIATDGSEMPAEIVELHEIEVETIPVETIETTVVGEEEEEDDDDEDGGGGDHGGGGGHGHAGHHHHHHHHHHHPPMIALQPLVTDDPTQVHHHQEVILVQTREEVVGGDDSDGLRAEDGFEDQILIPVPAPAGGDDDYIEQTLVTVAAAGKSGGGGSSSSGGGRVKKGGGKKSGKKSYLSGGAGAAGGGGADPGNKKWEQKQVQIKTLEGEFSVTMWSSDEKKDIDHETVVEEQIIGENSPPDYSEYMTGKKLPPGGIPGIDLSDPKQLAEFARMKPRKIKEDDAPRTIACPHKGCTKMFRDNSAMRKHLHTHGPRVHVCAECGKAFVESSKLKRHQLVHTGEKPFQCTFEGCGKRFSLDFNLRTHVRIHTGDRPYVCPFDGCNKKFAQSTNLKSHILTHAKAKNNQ
# UniProt P33316: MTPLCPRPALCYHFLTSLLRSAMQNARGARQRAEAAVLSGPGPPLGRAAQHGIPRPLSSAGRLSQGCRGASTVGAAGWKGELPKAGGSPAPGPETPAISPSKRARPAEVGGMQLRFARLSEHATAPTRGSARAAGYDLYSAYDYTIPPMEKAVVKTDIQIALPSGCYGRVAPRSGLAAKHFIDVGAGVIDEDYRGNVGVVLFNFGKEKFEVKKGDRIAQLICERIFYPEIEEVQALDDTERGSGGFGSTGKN
# UniProt P36873, whole entry, looked up: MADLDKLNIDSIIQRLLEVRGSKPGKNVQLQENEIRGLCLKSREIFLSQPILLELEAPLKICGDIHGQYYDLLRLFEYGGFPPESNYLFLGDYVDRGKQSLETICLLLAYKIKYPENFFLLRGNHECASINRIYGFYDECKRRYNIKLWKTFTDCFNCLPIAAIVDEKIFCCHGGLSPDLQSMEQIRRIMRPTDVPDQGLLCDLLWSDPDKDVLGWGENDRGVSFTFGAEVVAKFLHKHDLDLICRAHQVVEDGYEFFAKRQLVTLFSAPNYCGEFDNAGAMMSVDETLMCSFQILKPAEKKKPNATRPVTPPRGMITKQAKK
# UniProt P31749: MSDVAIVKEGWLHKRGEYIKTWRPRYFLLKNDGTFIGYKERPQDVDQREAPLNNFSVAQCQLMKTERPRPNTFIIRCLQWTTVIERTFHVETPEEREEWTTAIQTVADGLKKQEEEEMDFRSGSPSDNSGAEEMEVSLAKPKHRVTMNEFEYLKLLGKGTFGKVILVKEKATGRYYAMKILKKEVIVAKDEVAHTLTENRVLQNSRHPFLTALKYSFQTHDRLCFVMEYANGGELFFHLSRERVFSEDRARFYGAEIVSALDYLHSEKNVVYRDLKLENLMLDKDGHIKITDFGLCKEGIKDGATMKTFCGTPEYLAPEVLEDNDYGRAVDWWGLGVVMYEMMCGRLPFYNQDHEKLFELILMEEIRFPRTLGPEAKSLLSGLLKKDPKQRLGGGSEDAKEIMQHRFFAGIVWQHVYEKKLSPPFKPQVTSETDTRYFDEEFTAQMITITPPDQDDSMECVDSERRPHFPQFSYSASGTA
# UniProt P22626: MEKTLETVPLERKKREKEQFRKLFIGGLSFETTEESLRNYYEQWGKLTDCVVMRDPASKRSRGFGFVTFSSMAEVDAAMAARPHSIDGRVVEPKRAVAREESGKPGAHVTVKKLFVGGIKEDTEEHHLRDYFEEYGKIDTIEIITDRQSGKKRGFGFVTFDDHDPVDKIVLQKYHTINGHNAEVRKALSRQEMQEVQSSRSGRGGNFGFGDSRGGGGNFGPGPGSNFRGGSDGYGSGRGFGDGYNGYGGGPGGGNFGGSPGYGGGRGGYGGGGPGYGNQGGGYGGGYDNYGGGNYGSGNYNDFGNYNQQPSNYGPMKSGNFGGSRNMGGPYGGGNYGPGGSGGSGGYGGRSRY
# UniProt P30405: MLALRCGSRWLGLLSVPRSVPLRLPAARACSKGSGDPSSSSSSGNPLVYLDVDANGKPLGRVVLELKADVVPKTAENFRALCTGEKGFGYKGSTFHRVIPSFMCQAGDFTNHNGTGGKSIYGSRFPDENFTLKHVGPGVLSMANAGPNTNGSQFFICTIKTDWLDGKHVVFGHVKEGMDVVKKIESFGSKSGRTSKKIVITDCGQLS
# UniProt P30419: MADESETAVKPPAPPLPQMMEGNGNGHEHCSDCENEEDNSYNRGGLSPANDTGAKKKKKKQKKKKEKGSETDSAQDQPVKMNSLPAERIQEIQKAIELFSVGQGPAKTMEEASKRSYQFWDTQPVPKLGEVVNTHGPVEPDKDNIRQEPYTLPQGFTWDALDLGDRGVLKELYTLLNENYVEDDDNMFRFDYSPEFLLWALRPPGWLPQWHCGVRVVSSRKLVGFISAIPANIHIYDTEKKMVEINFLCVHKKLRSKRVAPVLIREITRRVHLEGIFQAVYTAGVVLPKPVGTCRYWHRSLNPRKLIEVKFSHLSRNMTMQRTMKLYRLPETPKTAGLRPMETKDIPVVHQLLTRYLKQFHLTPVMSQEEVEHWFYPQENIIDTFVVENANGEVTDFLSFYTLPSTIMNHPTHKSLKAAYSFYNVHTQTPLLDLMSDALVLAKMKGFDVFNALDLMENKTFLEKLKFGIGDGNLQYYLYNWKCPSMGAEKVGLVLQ
# UniProt P31937: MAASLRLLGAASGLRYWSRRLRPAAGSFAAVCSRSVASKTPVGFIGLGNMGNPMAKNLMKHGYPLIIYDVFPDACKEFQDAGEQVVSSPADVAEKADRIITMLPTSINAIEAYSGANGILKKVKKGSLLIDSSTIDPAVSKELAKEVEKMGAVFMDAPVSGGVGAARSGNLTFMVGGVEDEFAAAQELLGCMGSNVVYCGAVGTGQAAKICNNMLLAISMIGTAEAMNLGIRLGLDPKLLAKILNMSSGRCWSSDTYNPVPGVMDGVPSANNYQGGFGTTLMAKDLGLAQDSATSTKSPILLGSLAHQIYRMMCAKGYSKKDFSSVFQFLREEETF
# UniProt P23368: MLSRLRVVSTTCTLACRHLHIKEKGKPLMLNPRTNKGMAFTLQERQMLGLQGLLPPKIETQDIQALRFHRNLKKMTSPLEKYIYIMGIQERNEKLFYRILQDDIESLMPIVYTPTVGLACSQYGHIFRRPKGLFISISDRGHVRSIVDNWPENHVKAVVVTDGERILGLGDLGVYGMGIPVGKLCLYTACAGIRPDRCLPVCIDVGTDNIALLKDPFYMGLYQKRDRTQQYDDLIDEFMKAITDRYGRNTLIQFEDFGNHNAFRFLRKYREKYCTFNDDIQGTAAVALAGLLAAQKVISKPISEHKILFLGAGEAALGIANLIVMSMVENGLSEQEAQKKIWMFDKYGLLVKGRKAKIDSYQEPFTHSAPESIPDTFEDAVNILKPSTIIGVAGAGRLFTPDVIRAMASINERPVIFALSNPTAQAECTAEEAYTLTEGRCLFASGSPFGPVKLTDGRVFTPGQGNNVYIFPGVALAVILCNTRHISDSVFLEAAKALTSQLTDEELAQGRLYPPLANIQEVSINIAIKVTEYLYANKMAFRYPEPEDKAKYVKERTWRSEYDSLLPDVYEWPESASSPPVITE
# The other results are listed elsewhere or left out. The data scatter; read single values as rough.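 Many melting curves are irregular; where none melted, Tm was taken as 64 °C.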
# Compound: CCc1cnccc1C(=O)Nc1cc2c(cc1F)NC(=O)CC2
# Assay: melting temperature shift (DMSO Tm minus MBE1-treated Tm) in cellular thermal proteome profiling; higher = less thermal stabilization by MBE1 (negative = stabilized by MBE1)
# Conditions: A375; MBE1 concentration: 100 nM
row,Target,melting temperature shift
1,EEF1G (UniProt P26641),0.195 °C
2,COMT (UniProt P21964),0.818 °C
3,HNRNPH3 (UniProt P31942),-0.0192 °C
4,ITGA6 (UniProt P23229),-1.07 °C
5,POLR2A (UniProt P24928),0.653 °C

# Same assay, conditions: A375; MBE1 concentration: 1 uM
row,Target,melting temperature shift
1,SHMT1 (UniProt P34896),-1.74 °C
2,DEK (UniProt P35659),-0.301 °C
3,FBL (UniProt P22087),-0.127 °C
4,COX5A (UniProt P20674),-4.47 °C
5,CALR (UniProt P27797),0.282 °C
6,CDC27 (UniProt P30260),0.916 °C
7,UniProt P21127,-0.167 °C
8,MYH9 (UniProt P35579),0.239 °C
9,CSTF2 (UniProt P33240),-0.0805 °C
10,UniProt P30414,-0.295 °C
11,PRKAR1B (UniProt P31321),0.482 °C
12,UniProt P25098,0.623 °C
13,M6PR (UniProt P20645),-2.78 °C
14,YY1 (UniProt P25490),-0.372 °C
15,DUT (UniProt P33316),0.507 °C
16,DDX6 (UniProt P26196),0.678 °C
17,PRKACB (UniProt P22694),0.867 °C
18,UniProt P21980,0.0546 °C
19,PPP1CC (UniProt P36873),0.93 °C

row,Target,melting temperature shift
1,AKT1 (UniProt P31749),-0.0122 °C
2,ARNT (UniProt P27540),-0.171 °C
3,HNRNPA2B1 (UniProt P22626),-0.458 °C
4,PPIF (UniProt P30405),-0.765 °C
5,RBMS1 (UniProt P29558),-2.05 °C
6,ARL3 (UniProt P36405),0.888 °C
7,SOAT1 (UniProt P35610),1.07 °C
8,NMT1 (UniProt P30419),0.0604 °C
9,YWHAQ (UniProt P27348),-0.0045 °C
10,HIBADH (UniProt P31937),0.0855 °C
11,IMPDH1 (UniProt P20839),-0.248 °C
12,MUT (UniProt P22033),0.598 °C
13,ME2 (UniProt P23368),-0.183 °C
14,EEF1G (UniProt P26641),0.171 °C
15,COMT (UniProt P21964),1.22 °C
16,HNRNPH3 (UniProt P31942),-0.128 °C
17,ITGA6 (UniProt P23229),0.51 °C
18,POLR2A (UniProt P24928),-0.238 °C
